IC50 data for 15 molecules are collected here from patent EP4630114B1, “NEW CYANOPYRIDINE KHK INHIBITOR COMPOUNDS” (dated 2026).

Chains of the proteins cited; added tags and fusions are not shown.
UniProt P50053, whole entry: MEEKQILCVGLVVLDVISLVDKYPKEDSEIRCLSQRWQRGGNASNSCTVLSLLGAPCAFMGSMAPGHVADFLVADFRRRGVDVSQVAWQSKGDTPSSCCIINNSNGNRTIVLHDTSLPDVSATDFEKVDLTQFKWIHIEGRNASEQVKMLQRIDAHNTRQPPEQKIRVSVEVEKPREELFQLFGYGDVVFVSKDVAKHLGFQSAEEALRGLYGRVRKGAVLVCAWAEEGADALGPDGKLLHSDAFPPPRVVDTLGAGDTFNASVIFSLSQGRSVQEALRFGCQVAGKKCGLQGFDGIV

The structures given here were assigned with low confidence; some may be wrong.

For the first test, the target named is recombinant human KHK-C (Homo sapiens, UniProt P50053). The test can be described thus: Human KHK-C inhibition assay (Assay A, ADP-GLO Kinase Assay). The following applies: read-out: KHK inhibition assay (Assay A) IC50; His-tagged human KHK-C (1 µg/ml), 400 µM D-fructose, 200 µM ATP, 60 min at room temperature. For orientation: ADP-Glo turns the ADP formed in a reaction into a luminescent signal.
As usually defined, the IC50 is the concentration that inhibits the measured activity by half. With `CSc1ccc(CC(=O)O)cc1Nc1nc(N2CC[C@@H](N)C2)cc(C(F)(F)F)c1C#N`, the IC50 was 6.1 nM.
Same read-out and setting: with `CS(=O)(=O)c1ccccc1Nc1nc(N2CCNCC2)cc(C(F)(F)F)c1C#N` the figure was 91 nM; with `CS(=O)(=O)c1ccccc1Nc1nc(N2C[C@H]3CNC[C@H]3C2)cc(C(F)(F)F)c1C#N`, 6.5 nM.
`N#Cc1c(C(F)F)cc(N2CC[C@@H](N)C2)nc1Nc1ccccc1C1CC1`: the half-inhibitory concentration (IC50) is 3.7 nM.
For the molecule `CSc1ccc(CC(=O)O)cc1Nc1nc(N2CC[C@H](N(C)C)C2)cc(C(F)(F)F)c1C#N`, the 50% inhibitory concentration (IC50) was found to be 8 nM.
Take `CSc1ccc(Cl)cc1Nc1nc(N2CCNC(=O)C2)cc(C(F)(F)F)c1C#N`: the concentration for half-maximal inhibition (IC50) turned out to be 72.1 nM.
Same read-out and setting: the result for `CS(=O)(=O)c1ccc(Cl)cc1Nc1nc(N2C[C@H]3CNC[C@H]3C2)cc(C(F)(F)F)c1C#N` reads 7.4 nM; that for `CSc1ccc(OC(C)C(=O)O)cc1Nc1nc(N2CC[C@@H](N)C2)cc(C(F)F)c1C#N` (stereo partly shown), 4.1 nM; that for `COP(=O)(O)Cc1ccc(SC)c(Nc2nc(N3CC[C@H](N(C)C)C3)cc(C(F)(F)F)c2C#N)c1`, 16.9 nM.
On to `CN[C@@H]1CCN(c2cc(C(F)F)c(C#N)c(Nc3cc(OC(C)C(=O)O)ccc3SC)n2)C1` (stereo partly shown), for which the 50% inhibitory concentration (IC50) is 2.8 nM.
Same read-out and setting: with `CSc1ccc(Cl)cc1Nc1nc(N2CCNCC2)cc(C)c1C#N` the figure was 21.5 nM; with `N#Cc1c(C(F)(F)F)cc(N2CCNCC2)nc1Nc1ccccc1SC(F)F`, 10.8 nM.
Regarding `CSc1ccc(OC(C)C(=O)O)cc1Nc1nc(N2CC[C@H](N(C)C)C2)cc(C(F)F)c1C#N` (stereo partly shown), the IC50 was found to be 9.3 nM.
Consider `CCc1ccccc1Nc1nc(N2CCNCC2)cc(C(F)(F)F)c1C#N`, for which the IC50 was determined as 176 nM.
Same read-out and setting: with `CN[C@@H]1CCN(c2cc(C(F)F)c(C#N)c(Nc3cc(CCC(=O)O)ccc3SC)n2)C1` the figure was 4.7 nM.

Another test concerns the target fructose-1-phosphate generation in HepG2 cells (Homo sapiens, UniProt P50053). Put plainly: Inhibition of fructose-1-phosphate generation in HepG2 cells (Assay B, RapidFire-MS/MS). The following applies: read-out: HepG2 assay (Assay B) IC50, 30 min with test compound, then 15 mM D-fructose for further 60 min, 37°C.
`CS(=O)(=O)c1ccccc1Nc1nc(N2C[C@H]3CNC[C@H]3C2)cc(C(F)(F)F)c1C#N`: the half-inhibitory concentration (IC50) came out at 194 nM.
